# Test results: PubChem BioAssay AID2685 (National Center for Advancing Translational Sciences (NCATS), 2010)
# The whole screen tested about 320,000 compounds, of which about 2,100 (0.66%) were called active. The inconclusive results got no clear call from the source; some entries with a clear call stand among them for comparison. Calls come from the whole dose curve; as a rule, active = well fitted inhibition curve with a large enough effect in the signal ratio, with a control signal flat (not every such curve was filed as active); inconclusive = small, poorly fitted or top-dose-only effect, or effect the other way, or a change in a side signal; inactive = flat fitted curve, though single readings scatter; the % refers to the signal ratio. Where the call is inconclusive, the potency comes from a doubtful curve fit.
# Assay: qHTS Assay for Lipid Storage Modulators in Drosophila S3 Cells
# Settings: BODIPY lipid droplet fluorescence, 18-24 h, cells fed with added oleic acid; lipid storage change, negative = inhibition: at 46.1 µM (top of the series) unless noted
# How it was run: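 Drosophila S3 cells got compounds at several concentrations plus oleic acid (400 uM solution). Laser-scanning cytometry with 488 nm excitation read lipid droplets at 500-530 nm and cells at 575-640 nm. Percent activity was relative to 20 uM Triacsin C.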
# % is set by controls: 0 for no effect and ±100 for the full control effect; potency is the fitted concentration of half-maximal effect.
Compound,Potency,"lipid storage change, negative = inhibition"
COc1nc(Nc2cccc(C)c2)nc(N2CCCCC2)n1,"inconclusive: 18.4 µM [falling, single point]",
COC(=O)CCC(C)N1CCC(Oc2ccc(C(=O)NCc3ccccn3)cc2)CC1 (configuration not stated),,inconclusive: 31.7%
CCOC(=O)C1=C(CNCCOc2ccc(OC)cc2)NC(=O)NC1c1ccc2c(c1)OCO2 (configuration not stated),,inconclusive: 10.7%
CC1(C)CC(=O)C(C2C3=C(CC(C)(C)CC3=O)Oc3ccc4ccccc4c32)C(=O)C1 (configuration not stated),,inconclusive: -58.4%
CC[n+]1ccc(/C=C/c2c[nH]c3ccccc23)cc1,"inconclusive: 29.1 µM [falling, single point]",
CC(C)Cc1nnc(NC(=O)CCC(=O)N2CCN(S(=O)(=O)c3ccccc3)CC2)s1,"inconclusive: 18.4 µM [rising, single point]",
O=C(/C=C/c1ccccc1Br)c1ccc2c(c1)OCO2,"inconclusive: 29.1 µM [falling, single point]",
COc1cc(NC(=O)COc2ccc(C)c(C)c2)ccc1NC(=O)c1ccco1,,inconclusive: 25.6%
O=C(COC(=O)CC1CC2CCC1C2)Nc1c(F)cccc1F (configuration not stated),,inconclusive: -25.9%
O=C(COC(=O)c1c(F)cccc1F)Nc1ccc2c(c1)OCO2,,inconclusive
CCN(c1ccccc1)S(=O)(=O)c1ccc(Cl)c(C(=O)O)c1,,inconclusive: -31%
O=C(C1CCCCC1)N1CCCC(c2nc3c(nnn3Cc3ccccc3)c(=O)[nH]2)C1 (configuration not stated),"inconclusive: 0.461 µM [falling, full curve, poor fit]",
O=C(NCc1ccccn1)c1ccc(Cl)c(NC2=NC3CS(=O)(=O)CC3S2)c1 (configuration not stated),,inconclusive: -12.7%
CCOC(=O)c1[nH]c2ccccc2c1NC(=O)c1ccc(S(=O)(=O)N2CCCCC2)cc1,,inconclusive: -19.5%
COc1cccc(NC(=O)CNC(C)CCC(C)C)c1 (configuration not stated),"inconclusive: 32.6 µM [falling, single point]",
O=c1c2c(nc3c(-c4ccccc4)c[nH]n13)CCC2,,inconclusive: -18.6%
OCC[C@@H]1C[C@@H](O)[C@H](O)[C@@]2(Cc3ccccc3CO2)O1,,inconclusive: 43.7%
CC(=O)c1ccc(-c2nnc(CCC(=O)N3CCCC(C(=O)CC(C)C)C3)o2)s1 (configuration not stated),,inconclusive: 24%
O=C(CSc1ncn[nH]1)c1cccc([N+](=O)[O-])c1,,inconclusive: -14.6%
CCOC(=O)c1cc(C)[nH]c(=S)c1C#N,,inconclusive: 34.6%
COC(=O)[C@H](Cc1ccccc1)NC(=O)NCc1ccc(C)cc1,,inconclusive: 14.1%
COc1ccccc1N1CCN(C(=O)Nc2ccc([N+](=O)[O-])cc2)CC1,,inconclusive: -34.1%
CN1C=CC=C/C1=C1/N=C(c2ccccc2)OC1=O,"inconclusive: 0.58 µM [falling, single point]",
COc1ccc(N2CCN(c3ncnc4scc(-c5ccc(F)cc5)c34)CC2)cc1,,inconclusive: -100%
CC1(C)CC(=O)C(N=Nc2cc(Cl)c(Cl)c(Cl)c2)=C(O)C1,,inconclusive: 6.42%
CCOc1ccc(S(=O)(=O)n2cc(-c3ccc(F)cc3)c(N)n2)cc1,"inconclusive: 2.06 µM [activator, partial curve]",

# Single values from the list.
# Potency, O=C(/C=C/c1ccccc1Br)c1ccc2c(c1)OCO2 reads inconclusive: 29.1 µM [falling, single point]
# Potency, CCOc1ccc(S(=O)(=O)n2cc(-c3ccc(F)cc3)c(N)n2)cc1 reads inconclusive: 2.06 µM [activator, partial curve]

# Additional structures follow:

Compound,Potency,"lipid storage change, negative = inhibition"
CCCCNC(=O)c1cc2c(C)cc(C)cc2[nH]1,,inconclusive: 8.99%
CCOC(=O)c1nn(-c2ccccc2)c(=O)cc1SC1CCCCC1,,inconclusive: 17.1%
CCCOc1ccc(C(F)(F)F)cc1NC(=O)CCc1c(C)noc1C,,inconclusive: 5.4%
O=C(COC(=O)CNC(=O)c1ccccc1F)NC12CC3CC(CC(C3)C1)C2,"inconclusive: 1.3 µM [activator, full curve]",
O=C(OCc1nnc(-c2ccccc2)o1)c1cc(=O)[nH]c2ccccc12,,inconclusive
C=CCn1c(SCC(=O)NC2CC2)nnc1-c1cccs1,,inconclusive: 14.3%
O=C(Oc1ccc(-c2ccccc2)cc1)N1CCCCC1,,inconclusive: 0.201%
CCOc1ccc(C2=NNC(c3cccs3)=Nc3ccc(OC)cc32)cc1,"inconclusive: 29.1 µM [cytotoxic, single point]",
COc1cccc(N2CCN(C(=O)CN(C)S(=O)(=O)c3ccc4c(c3)CCC(=O)N4)CC2)c1,"inconclusive: 7.31 µM [activator, partial curve, poor fit]",
O=C(CN1CCN(c2ccc(F)cc2)CC1)N1N=CCC1c1ccccc1 (configuration not stated),,inconclusive: -6.36%
CCOC(=O)c1cc(-c2ccccc2)nn1Cc1cc(C)no1,,inactive
CC(=O)N1CCN(c2ncnc3ccccc23)CC1,"inconclusive: 0.731 µM [activator, partial curve, poor fit]",
COc1cccc(C(c2c(NC(=O)c3ccco3)sc(C)c2C)N2CCOCC2)c1 (configuration not stated),active: 20.6 µM,
CSc1nccc(NC(=O)c2ccc(C(C)(C)C)cc2)n1,"inconclusive: 32.6 µM [cytotoxic, single point]",
CC1CCCN(C(=O)Cn2c(=O)oc3ccccc32)C1 (configuration not stated),,inconclusive: -4.92%
Cn1c(=O)n(CCc2ccccc2)c(=O)c2c1nc1n2CCN1Cc1ccco1,,inconclusive: -4.08%
CC1(C)CC(=O)C2=C(C1)Oc1ncn3nc(-c4cccnc4)nc3c1C2c1ccccc1 (configuration not stated),,inconclusive: 17.6%
Cc1ccc(NS(=O)(=O)c2cccc(C(=O)N3CCOCC3)c2)cc1,,inconclusive: -23.8%
COC(=O)C1C(c2ccc(OC)cc2)NC(=O)NC1(O)C(F)(F)Cl (configuration not stated),"inconclusive: 3.66 µM [falling, full curve, poor fit]",
O=C(Nc1cccnc1)c1ccccc1F,,inconclusive: 8.99%
CCOc1ccc(C(=O)NNC2CC(=O)N(CCc3ccccc3)C2=O)cc1OC (configuration not stated),"inconclusive: 29.1 µM [activator, single point]",
COc1ccc(OC)c(NC(=O)C2CCN(S(=O)(=O)c3ccc4c(c3)OCCO4)CC2)c1,"inconclusive: 0.651 µM [activator, partial curve, poor fit]",
Cc1oc(CN2CCOCC2)cc1C(=O)O,,inconclusive: -17%
Cc1ccccc1S(=O)(=O)Cc1ccc(C(=O)NC2CC2)o1,,inconclusive: 12.7%
COc1ccc2nc(NC(=O)CSc3nccc(C)n3)sc2c1,,inconclusive: -1.44%
Cc1ccc2nc(-c3cccc(S(=O)(=O)N4CC(C)OC(C)C4)c3)cn2c1 (configuration not stated),active: 16.4 µM,

# Filtered by structure, those above with four or more nitrogen atoms
Compound,Potency,"lipid storage change, negative = inhibition"
COc1nc(Nc2cccc(C)c2)nc(N2CCCCC2)n1,"inconclusive: 18.4 µM [falling, single point]",
CC(C)Cc1nnc(NC(=O)CCC(=O)N2CCN(S(=O)(=O)c3ccccc3)CC2)s1,"inconclusive: 18.4 µM [rising, single point]",
O=C(C1CCCCC1)N1CCCC(c2nc3c(nnn3Cc3ccccc3)c(=O)[nH]2)C1 (configuration not stated),"inconclusive: 0.461 µM [falling, full curve, poor fit]",
O=C(NCc1ccccn1)c1ccc(Cl)c(NC2=NC3CS(=O)(=O)CC3S2)c1 (configuration not stated),,inconclusive: -12.7%
O=C(CSc1ncn[nH]1)c1cccc([N+](=O)[O-])c1,,inconclusive: -14.6%
COc1ccccc1N1CCN(C(=O)Nc2ccc([N+](=O)[O-])cc2)CC1,,inconclusive: -34.1%
COc1ccc(N2CCN(c3ncnc4scc(-c5ccc(F)cc5)c34)CC2)cc1,,inconclusive: -100%
C=CCn1c(SCC(=O)NC2CC2)nnc1-c1cccs1,,inconclusive: 14.3%
COc1cccc(N2CCN(C(=O)CN(C)S(=O)(=O)c3ccc4c(c3)CCC(=O)N4)CC2)c1,"inconclusive: 7.31 µM [activator, partial curve, poor fit]",
O=C(CN1CCN(c2ccc(F)cc2)CC1)N1N=CCC1c1ccccc1 (configuration not stated),,inconclusive: -6.36%
CC(=O)N1CCN(c2ncnc3ccccc23)CC1,"inconclusive: 0.731 µM [activator, partial curve, poor fit]",
Cn1c(=O)n(CCc2ccccc2)c(=O)c2c1nc1n2CCN1Cc1ccco1,,inconclusive: -4.08%
CC1(C)CC(=O)C2=C(C1)Oc1ncn3nc(-c4cccnc4)nc3c1C2c1ccccc1 (configuration not stated),,inconclusive: 17.6%
COc1ccc2nc(NC(=O)CSc3nccc(C)n3)sc2c1,,inconclusive: -1.44%

# Next part:

Compound,Potency,"lipid storage change, negative = inhibition"
Cc1c(NC(=O)NCCN2C(=O)C3C4C=CC(C4)C3C2=O)c(=O)n(-c2ccccc2)n1C (configuration not stated),,inconclusive: 44.3% [activator]
CC(C)[C@H](NC(=O)NCc1ccco1)C(=O)O,"inconclusive: 29.1 µM [falling, single point]",
COc1ccc(-n2ncc3c2CC(C)(C)CC3NC(=O)c2cn[nH]c2)cc1 (configuration not stated),,inconclusive: -100%
CC1(C)CC2CC(C)(CN2Cc2c(O)ccc3ccccc23)C1 (configuration not stated),,inconclusive: 5.94%
COc1ccc(C(=O)O/N=C(\N)Cc2ccc([N+](=O)[O-])cc2)c(OC)c1,,inconclusive: 4.44%
NNc1ccccc1C(F)(F)F,,inconclusive: 9.54%
COc1ccccc1CNC(=O)CN1CCN(S(=O)(=O)c2cccs2)CC1,,inconclusive: -12.9%
COc1cccc(CNC(=O)CCC2CCCN(C(=O)c3cscn3)C2)c1 (configuration not stated),,inconclusive: 16.3%
CC1CC(C)CN(c2cc(=O)n(Cc3ccc(F)cc3)c(=O)[nH]2)C1 (configuration not stated),,inconclusive: 36.9%
CCCCCCSc1cc(-c2nc3cnccn3c2NCc2ccccc2)ccc1OC,"inconclusive: 3.66 µM [activator, single point]",
CCc1c(C)sc(NC(=S)Nc2nc(C)cc(C)n2)c1C(=O)OC,,inconclusive: -41.3% [cytotoxic] [at 0.00295 µM]
CCOC(=O)Cn1c(=NC(=O)CC)sc2c(C)cc(C)cc21,,inconclusive: -3.53%
C1CCCCCC2(CCCCC1)OCC(CN1CCOCC1)O2 (configuration not stated),,inconclusive: -4.49%
C=CCSc1nnc(-c2c[nH]c3ccccc23)n1CCOC,,inconclusive: -18.1%
C#CCOCCOCCOCCNc1nc(N2CCN(C(=O)Cn3cc(CCCN=C(N)N)nn3)CC2)nc(N2CCN(C(=O)[C@H](CCCCN)n3cc(CCC(=O)O)nn3)CC2)n1,,inconclusive: 33.5%
O=C(Oc1ccccc1[N+](=O)[O-])c1cccnc1,,inconclusive: -23.8%
CC(=O)N=c1sc(C(C)(C)C)c(C)n1C,,inconclusive: 1.13%
O=C(O)C1=C(C(=O)N2CCN(C(=O)c3ccco3)CC2)CCCC1,,inconclusive: 102%
Cc1ccc(NC(=O)c2csc(-c3ccccc3)c2C)cc1,"inconclusive: 7.31 µM [falling, single point]",
C/C(=N/NC(=O)c1ccc(O)cc1)c1cccc([N+](=O)[O-])c1,"inconclusive: 3.66 µM [activator, full curve, poor fit]",
CCc1c(C(=O)NCCc2cccc(C)c2)[nH]c(C)c1C(C)=O,"inconclusive: 0.259 µM [falling, full curve]",
Cc1ccc(/C=C/C(=O)OCC(=O)N(CC(C)C)c2c(N)n(Cc3ccccc3)c(=O)[nH]c2=O)o1,"inconclusive: 13 µM [falling, partial curve, poor fit]",
CN(C)CCCN(C(=O)c1ccc2c(c1)OCCO2)c1nc2ccc(Cl)cc2s1,,inconclusive: -6.58%
CCC(=O)NC(Nc1ccccn1)(C(=O)OC)C(F)(F)F (configuration not stated),,inconclusive: -6.58%
Cc1ccc(-c2csc(NC(=O)c3c(C)noc3C)n2)cc1C,,inconclusive: -100%
